The list shows a part of the results.
Experiments:
Assay in all cases: log2 fold change, soluble protein after heating vs DMSO (PISA); higher = thermal stabilisation; K562 lysate, 10 uM; active = over 0.2 and 3.5 SD of the protein, either way, in both replicates (recomputed)
[1] = compound: C1=CC=C(C=C1)[C@H](COC2=CC3=C(C=C2)NC(=O)N3)NC(=O)C4=CC=CN(C4=O)CC5=CC(=C(C=C5)F)F
How it was run: (§1)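 Soluble protein was defined as the supernatant remaining after 21,000xg for 90 min, following pooling of heated aliquots and adjustment to 0.5% NP-40 at 4°C. Before that, crude K562 extract at 1 mg/mL protein in PBS pH 7.4 with 1 mM MgCl2 was treated with 10 μM compound for 30 min and heated for 3 min across 48°C-58°C. Quantification used TMTpro 16plex LC-MS/MS with channel sums equalised, and values are log-two fold changes in thermal stability relative to solvent controls from duplicates.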

Sequences of proteins named here, by UniProt entry; tags and fusion partners are left off. A change or cut given only in a name is not applied to a line headed by its entry.
UniProt Q6P1A2: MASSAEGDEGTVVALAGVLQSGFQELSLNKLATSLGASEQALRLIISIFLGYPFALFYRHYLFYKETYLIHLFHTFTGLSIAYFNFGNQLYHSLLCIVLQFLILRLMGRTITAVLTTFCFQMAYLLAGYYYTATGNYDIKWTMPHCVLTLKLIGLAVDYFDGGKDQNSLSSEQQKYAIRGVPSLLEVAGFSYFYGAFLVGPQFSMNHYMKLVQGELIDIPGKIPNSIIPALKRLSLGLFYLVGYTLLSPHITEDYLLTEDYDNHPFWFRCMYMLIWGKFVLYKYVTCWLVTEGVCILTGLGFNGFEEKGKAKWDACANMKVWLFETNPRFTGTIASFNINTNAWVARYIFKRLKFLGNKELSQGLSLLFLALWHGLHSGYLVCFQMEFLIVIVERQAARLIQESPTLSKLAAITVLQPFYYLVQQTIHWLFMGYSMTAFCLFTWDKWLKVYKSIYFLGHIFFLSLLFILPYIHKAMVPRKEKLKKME
UniProt Q6P5S2: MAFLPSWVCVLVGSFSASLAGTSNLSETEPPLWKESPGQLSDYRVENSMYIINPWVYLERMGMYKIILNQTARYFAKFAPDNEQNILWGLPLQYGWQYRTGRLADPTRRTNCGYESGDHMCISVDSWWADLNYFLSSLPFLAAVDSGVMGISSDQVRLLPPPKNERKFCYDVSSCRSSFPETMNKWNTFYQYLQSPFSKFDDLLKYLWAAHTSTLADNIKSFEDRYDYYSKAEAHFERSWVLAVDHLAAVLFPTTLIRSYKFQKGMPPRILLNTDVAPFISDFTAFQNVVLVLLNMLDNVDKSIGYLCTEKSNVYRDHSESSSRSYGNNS
UniProt Q9Y2L9: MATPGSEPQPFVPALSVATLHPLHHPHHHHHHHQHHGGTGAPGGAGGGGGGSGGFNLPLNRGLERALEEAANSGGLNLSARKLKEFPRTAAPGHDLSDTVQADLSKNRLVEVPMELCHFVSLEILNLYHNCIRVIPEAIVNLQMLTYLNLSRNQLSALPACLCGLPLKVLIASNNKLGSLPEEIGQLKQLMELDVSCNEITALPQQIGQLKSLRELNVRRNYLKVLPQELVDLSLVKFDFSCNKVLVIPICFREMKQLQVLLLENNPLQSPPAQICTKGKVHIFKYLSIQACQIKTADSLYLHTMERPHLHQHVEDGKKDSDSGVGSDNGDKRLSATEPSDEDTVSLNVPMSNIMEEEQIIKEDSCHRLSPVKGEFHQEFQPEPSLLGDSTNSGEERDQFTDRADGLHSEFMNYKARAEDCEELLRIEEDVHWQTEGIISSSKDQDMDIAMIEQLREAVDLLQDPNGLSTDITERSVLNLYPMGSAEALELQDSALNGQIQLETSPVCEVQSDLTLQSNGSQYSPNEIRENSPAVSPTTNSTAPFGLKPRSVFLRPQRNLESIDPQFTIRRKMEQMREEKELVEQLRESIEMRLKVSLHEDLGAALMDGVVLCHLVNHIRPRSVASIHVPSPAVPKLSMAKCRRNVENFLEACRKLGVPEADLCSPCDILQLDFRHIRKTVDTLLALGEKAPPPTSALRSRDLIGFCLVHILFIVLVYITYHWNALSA
UniProt Q12907: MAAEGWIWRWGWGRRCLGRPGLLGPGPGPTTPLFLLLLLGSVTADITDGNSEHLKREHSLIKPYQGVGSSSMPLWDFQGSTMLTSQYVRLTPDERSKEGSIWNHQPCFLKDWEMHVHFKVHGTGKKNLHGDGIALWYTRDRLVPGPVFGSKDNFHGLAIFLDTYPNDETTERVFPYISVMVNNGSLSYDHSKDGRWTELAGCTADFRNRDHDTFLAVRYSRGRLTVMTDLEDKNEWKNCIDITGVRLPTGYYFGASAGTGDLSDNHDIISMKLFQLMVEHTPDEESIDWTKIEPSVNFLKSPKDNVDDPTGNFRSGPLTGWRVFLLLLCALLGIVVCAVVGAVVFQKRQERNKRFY
UniProt Q9UHB6: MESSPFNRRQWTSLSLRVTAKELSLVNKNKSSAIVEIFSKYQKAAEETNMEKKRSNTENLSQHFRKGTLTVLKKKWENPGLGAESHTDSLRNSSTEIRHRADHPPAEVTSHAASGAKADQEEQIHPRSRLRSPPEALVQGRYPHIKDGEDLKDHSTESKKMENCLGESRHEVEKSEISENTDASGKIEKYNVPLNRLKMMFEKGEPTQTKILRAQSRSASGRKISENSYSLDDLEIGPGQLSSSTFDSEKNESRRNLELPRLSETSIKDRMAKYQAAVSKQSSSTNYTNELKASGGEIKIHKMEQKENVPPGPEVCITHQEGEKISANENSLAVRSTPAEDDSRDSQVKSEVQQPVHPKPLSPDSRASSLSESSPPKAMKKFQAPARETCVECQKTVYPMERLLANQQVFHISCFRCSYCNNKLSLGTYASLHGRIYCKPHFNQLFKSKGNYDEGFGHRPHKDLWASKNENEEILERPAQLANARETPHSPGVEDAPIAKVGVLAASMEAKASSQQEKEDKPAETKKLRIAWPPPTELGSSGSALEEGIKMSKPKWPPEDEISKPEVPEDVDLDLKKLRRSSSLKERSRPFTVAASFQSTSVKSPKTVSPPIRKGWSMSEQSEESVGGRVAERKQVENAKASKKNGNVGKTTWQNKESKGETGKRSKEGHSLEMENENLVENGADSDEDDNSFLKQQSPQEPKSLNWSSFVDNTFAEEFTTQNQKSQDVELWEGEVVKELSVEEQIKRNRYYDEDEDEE
UniProt Q7Z4F1: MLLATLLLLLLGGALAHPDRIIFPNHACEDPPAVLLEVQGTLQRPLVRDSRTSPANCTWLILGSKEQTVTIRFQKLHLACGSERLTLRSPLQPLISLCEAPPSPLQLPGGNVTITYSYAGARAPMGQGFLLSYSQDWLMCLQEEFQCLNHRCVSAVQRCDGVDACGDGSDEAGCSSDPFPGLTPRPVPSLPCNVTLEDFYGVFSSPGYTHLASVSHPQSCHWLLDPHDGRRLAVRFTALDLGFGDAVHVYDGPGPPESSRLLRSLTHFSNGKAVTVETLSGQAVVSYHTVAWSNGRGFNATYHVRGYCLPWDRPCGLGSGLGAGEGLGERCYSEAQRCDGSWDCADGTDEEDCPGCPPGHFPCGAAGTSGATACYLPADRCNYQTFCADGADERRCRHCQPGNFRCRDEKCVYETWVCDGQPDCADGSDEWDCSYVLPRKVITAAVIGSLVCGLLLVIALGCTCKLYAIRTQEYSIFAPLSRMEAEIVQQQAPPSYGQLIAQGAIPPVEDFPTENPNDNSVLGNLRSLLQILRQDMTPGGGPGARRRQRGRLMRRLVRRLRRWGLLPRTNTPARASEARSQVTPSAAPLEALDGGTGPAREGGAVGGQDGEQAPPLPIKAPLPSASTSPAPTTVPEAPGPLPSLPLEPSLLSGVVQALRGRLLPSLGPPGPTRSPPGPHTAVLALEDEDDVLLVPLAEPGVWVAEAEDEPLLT
UniProt Q3MHD2: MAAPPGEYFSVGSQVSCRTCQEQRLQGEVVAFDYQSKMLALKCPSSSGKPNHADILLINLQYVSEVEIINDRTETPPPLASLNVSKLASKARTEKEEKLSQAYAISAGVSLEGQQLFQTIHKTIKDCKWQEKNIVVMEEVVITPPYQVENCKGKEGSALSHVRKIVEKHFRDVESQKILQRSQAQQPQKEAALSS
UniProt Q14693: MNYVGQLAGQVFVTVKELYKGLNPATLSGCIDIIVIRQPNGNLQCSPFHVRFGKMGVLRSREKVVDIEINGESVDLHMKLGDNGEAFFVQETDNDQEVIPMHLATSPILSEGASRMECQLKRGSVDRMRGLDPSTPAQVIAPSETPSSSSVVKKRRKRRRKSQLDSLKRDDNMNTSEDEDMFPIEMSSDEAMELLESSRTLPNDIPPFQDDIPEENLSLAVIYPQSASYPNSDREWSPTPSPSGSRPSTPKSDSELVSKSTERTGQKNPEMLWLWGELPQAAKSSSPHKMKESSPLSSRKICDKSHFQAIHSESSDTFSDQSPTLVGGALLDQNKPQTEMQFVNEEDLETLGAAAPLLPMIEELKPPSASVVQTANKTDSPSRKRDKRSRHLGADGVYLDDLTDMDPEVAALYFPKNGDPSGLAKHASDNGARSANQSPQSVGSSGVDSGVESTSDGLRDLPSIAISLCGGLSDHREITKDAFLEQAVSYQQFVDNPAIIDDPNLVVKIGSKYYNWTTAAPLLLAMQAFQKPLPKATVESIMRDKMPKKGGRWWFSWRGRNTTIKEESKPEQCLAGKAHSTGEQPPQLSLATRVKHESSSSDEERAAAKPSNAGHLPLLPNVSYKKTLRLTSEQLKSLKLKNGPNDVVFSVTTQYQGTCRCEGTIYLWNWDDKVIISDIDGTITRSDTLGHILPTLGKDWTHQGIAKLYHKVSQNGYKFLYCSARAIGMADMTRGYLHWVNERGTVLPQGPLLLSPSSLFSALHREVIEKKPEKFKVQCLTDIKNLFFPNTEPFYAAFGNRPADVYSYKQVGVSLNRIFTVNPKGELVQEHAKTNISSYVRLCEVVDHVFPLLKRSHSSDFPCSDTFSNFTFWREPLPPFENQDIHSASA
UniProt Q8TDW0: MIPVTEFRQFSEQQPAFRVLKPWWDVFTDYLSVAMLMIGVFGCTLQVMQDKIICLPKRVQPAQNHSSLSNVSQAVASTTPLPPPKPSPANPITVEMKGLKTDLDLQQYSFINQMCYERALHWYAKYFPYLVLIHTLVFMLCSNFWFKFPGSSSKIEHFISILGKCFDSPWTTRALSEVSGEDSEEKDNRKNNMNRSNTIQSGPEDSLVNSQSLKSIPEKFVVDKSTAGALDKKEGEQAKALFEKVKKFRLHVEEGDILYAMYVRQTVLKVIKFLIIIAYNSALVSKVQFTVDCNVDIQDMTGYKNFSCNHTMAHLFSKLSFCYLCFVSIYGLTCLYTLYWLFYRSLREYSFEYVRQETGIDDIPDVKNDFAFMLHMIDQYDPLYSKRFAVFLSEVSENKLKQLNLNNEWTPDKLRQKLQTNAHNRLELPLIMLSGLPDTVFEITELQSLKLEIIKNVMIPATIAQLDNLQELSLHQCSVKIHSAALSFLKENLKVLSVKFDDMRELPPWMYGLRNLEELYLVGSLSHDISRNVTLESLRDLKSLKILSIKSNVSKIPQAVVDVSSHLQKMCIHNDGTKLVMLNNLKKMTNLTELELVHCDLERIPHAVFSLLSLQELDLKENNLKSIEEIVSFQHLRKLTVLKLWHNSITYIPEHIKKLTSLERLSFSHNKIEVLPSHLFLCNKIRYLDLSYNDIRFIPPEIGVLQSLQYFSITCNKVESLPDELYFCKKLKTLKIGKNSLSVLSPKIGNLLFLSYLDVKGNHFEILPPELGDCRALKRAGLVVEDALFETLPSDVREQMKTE
UniProt Q9UJU2, whole entry, looked up: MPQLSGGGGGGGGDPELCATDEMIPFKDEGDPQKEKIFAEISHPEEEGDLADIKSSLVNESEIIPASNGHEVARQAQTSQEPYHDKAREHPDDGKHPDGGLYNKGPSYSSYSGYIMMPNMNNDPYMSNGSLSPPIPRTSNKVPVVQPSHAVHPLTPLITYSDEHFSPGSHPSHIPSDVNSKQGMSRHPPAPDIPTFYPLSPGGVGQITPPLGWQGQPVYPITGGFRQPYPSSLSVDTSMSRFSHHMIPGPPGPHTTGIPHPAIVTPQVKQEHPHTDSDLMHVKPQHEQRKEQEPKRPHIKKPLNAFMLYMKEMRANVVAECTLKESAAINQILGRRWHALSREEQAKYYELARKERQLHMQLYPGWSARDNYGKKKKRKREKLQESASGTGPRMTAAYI
UniProt Q9H9Z2: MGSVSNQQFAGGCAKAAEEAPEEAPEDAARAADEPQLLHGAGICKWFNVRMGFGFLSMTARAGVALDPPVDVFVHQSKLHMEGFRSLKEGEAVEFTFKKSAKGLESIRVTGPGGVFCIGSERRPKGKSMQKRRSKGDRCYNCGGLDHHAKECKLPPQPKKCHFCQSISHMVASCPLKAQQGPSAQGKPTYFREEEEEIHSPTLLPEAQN
UniProt P61968: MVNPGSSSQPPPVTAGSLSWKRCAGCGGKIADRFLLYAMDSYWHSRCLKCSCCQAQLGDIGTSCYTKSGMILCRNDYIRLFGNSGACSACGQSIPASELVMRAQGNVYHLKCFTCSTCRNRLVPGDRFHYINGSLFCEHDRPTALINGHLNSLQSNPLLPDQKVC
UniProt Q8NC56: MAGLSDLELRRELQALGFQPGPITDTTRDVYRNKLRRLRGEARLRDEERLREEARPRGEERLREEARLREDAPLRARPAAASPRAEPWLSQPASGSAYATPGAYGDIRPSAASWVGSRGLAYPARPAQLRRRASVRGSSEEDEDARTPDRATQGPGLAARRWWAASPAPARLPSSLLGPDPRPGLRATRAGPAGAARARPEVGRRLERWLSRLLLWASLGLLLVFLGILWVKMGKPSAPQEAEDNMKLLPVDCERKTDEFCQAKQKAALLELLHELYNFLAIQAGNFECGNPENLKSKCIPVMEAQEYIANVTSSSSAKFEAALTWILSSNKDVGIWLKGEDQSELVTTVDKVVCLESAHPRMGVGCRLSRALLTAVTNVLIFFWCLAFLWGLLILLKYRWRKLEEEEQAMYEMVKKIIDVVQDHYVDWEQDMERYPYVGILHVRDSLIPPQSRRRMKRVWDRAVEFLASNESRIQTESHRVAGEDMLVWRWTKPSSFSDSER

[2] = compound: CC1=C(SC2=C1C(=N[C@H](C3=NN=C(N32)C)CC(=O)N)C4=CC=C(C=C4)Cl)C
How it was run: as §1

[3] = compound: CC1=C2C(=CC=C1)N=C(N(C2=O)C3=CC=CC=C3C)CN4C=NC5=C(N=CN=C54)N
How it was run: as §1

[4] = compound: Cc1sc2c(c1C)C(c1ccc(Cl)cc1)=N[C@@H](CC(=O)OC(C)(C)C)c1nnc(C)n1-2
How it was run: as §1

[5] = compound: c1ccc([C@@H]2C[C@H]2NC2CCNCC2)cc1
How it was run: as §1

Measured: log2 fold change

LRCH3 (UniProt Q96II8)
inactive: [1] -0.038 | [2] -0.044 | [3] 0.025 | [4] -0.014 | [5] -0.028

LRBA (UniProt P50851)
inactive: [1] -0.003 | [2] 0.004 | [3] 0.012 | [4] -0.003 | [5] -0.003

LCMT1 (UniProt Q9UIC8)
inactive: [1] 0.044 | [2] 0.006 | [3] -0.052 | [4] 0.014 | [5] -0.032

LGALS3 (UniProt P17931)
inactive: [1] -0.055 | [2] 0.082 | [3] 0 | [4] -0.257 | [5] 0.009

LPCAT3 (UniProt Q6P1A2)
inactive: [1] -0.116 | [2] -0.044 | [3] 0.052 | [4] -0.089 | [5] 0.044

LDHA isoform 3 (UniProt P00338)
inactive: [1] 0.024 | [2] 0.023 | [3] -0.022 | [4] -0.004 | [5] 0.024

LEG1 (UniProt Q6P5S2)
inactive: [1] -0.29 | [2] 0.162 | [4] -0.059

LNX2 (UniProt Q8N448)
inactive: [1] 0.128 | [2] -0.057 | [3] 0.34 | [4] -0.135 | [5] -0.014

LIN9 isoform 2 (UniProt Q5TKA1)
inactive: [1] -0.04 | [2] -0.016 | [3] 0.059 | [4] -0.061 | [5] 0.032

LRCH1 isoform 3 (UniProt Q9Y2L9)
inactive: [1] 0.063 | [2] -0.001 | [4] -0.177

LMAN2L isoform 2 (UniProt Q9H0V9)
inactive: [1] 0.002 | [2] 0.003 | [3] -0.008 | [4] 0.002 | [5] -0.023

LRP6 (UniProt O75581)
inactive: [1] 0.008 | [2] 0.139 | [4] 0.043

LMAN2 (UniProt Q12907)
inactive: [1] -0.004 | [2] -0.011 | [3] 0.005 | [4] 0.041 | [5] -0.028

LMBRD2 (UniProt Q68DH5)
inactive: [1] 0.049 | [2] -0.066 | [3] 0.036 | [4] -0.115 | [5] 0.007

LIMA1 isoform 4 (UniProt Q9UHB6)
inactive: [1] 0.009 | [2] 0.022 | [3] 0.017 | [4] 0 | [5] 0.023

LRP10 (UniProt Q7Z4F1)
inactive: [1] -0.032 | [2] -0.029 | [4] -0.022 | [5] -0.048

LSM12 (UniProt Q3MHD2)
inactive: [1] 0.042 | [2] 0.073 | [3] 0.055 | [4] -0.006 | [5] -0.006

LRP8 (UniProt Q14114)
inactive: [1] 0.09 | [2] 0.082 | [3] -0.21 | [5] 0.053

Two records picked at random from the list so far, as already listed:
LRP8 (UniProt Q14114)
inactive: [1] 0.09 | [2] 0.082 | [3] -0.21 | [5] 0.053

LRP10 (UniProt Q7Z4F1)
inactive: [1] -0.032 | [2] -0.029 | [4] -0.022 | [5] -0.048

(next part)

LPIN1 isoform 7 (UniProt Q14693)
inactive: [1] 0.053 | [2] -0.003 | [3] -0.053 | [4] 0.029 | [5] 0.194

LRRC8C (UniProt Q8TDW0)
inactive: [1] 0.35 | [2] 0.093 | [3] 0.046 | [4] -0.003 | [5] 0.033

LRRIQ1 (UniProt Q96JM4)
inactive: [3] -0.002

LGALS3BP (UniProt Q08380)
inactive: [3] 0.159 | [4] -0.152 | [5] -0.071

LDHA isoform 4 (UniProt P00338)
inactive: [5] 0.311

LEF1 (UniProt Q9UJU2)
inactive: [3] 0.012 | [5] -0.049

LIN28A (UniProt Q9H9Z2)
inactive: [1] -0.056 | [2] 0.154 | [5] -0.216

LLGL2 (UniProt Q6P1M3)
inactive: [3] -0.25 | [4] -0.076

LCA5 (UniProt Q86VQ0)
inactive: [3] 0.03

LMO4 (UniProt P61968)
inactive: [3] 0.051 | [4] 0.231

LEMD2 (UniProt Q8NC56)
inactive: [4] -0.11 | [5] 0.045

LCORL (UniProt Q8N3X6)
inactive: [3] -0.081 | [5] -0.001

Source: the supplement of paper PMC10849652
